The assay concerns the target Cran1 expressed in situ with a Flag-tag at the C-terminus (Saccharolobus islandicus REY15A) (UniProt F0NG35). Briefly: affinity purification with mass spectrometry.

By UniProt entry, the sequences of proteins in these tests, tags left out. Where a name states a change or a piece, a line headed by the entry shows the natural chain unless it says otherwise.
UniProt F0NG35: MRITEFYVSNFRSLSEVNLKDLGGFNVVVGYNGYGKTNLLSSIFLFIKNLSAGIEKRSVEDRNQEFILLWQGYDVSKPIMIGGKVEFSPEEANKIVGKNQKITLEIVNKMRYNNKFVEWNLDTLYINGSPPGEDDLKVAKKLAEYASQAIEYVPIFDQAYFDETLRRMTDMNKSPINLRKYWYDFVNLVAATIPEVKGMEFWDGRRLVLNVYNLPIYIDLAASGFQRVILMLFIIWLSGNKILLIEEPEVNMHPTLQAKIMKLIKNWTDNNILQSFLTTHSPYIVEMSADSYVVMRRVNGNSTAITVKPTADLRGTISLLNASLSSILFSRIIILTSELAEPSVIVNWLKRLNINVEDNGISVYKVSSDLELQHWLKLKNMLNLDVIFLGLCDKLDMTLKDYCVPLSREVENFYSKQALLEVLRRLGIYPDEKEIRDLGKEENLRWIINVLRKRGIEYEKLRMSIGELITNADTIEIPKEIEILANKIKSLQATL

These are yes or no findings as the source states them, for the method shown. Binding seen in cells or lysates may run through a third protein. These calls come from enrichment with a bait or labelling near it, and not all partners need be listed. Where a sequence is shown, tags or fusion partners need not be part of it.

Binding data for two molecules are collected here from doi:10.1101/2025.03.27.645713.

B1: Cren7 (protein, UniProt C3MPN0 1-60)
chain: MSSGKKAVKVKTPAGKEAELVPEKVWALAPKGRKGVKIGLFKDPETGKYFRHKLPDDYPI
B1: the binding entry is listed as “binds”.

B2: histone deacetylase superfamily protein (SiRe_1988) (protein, UniProt F0NBZ0 1-327)
chain: MITIVYDDIYRYHAPKKYHVENPSRIDKALSAINQLEVKFEKPVRVDDPQIVHSEDYIKLVEKHSKLEENLDADTYTNKYTYESALYAMGGALKAFETNGFALVRPPGHHVGVNGRALGAPTLGFCIFNSVAYPIKRYKLKRVAIIDFDVHYGNGTQEIFYDDPDILHIDVHQDPRTIYPGTGFVDMIGGKDAEGTKINLLIPPLGSDDLYEELIPIIQAILDDFKPVVVAYSAGFDSYVGDGLASVNATEYTFYNFGMISNKFTRKYAVLEGGYNKGLVKGLKAFLEGFANLKIEYKKYKSSDTVKSRFMNYLSEEKNILRNYWSI
In the case of B2, the binding entry is listed as “binds”.
